PubChem BioAssay AID1159578, Peter MacCallum Cancer Centre, 2015
Aim: 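siRNA pools altering how lymphatic endothelial cells close a scratch wound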 (primary screen). Cells: human lymphatic endothelial cells. Reagent: siRNA pool against human genes, 40 nM. Timing: 48 h after transfection. Detection: 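Cells stained with dye and imaged after a scratch; covered wound area and nuclei counted, duplicates averaged, migration set against mock wells and turned into a robust z-score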. Scale: migration robust z-score: higher = faster migration into the scratch; nuclei per well: higher = more cells in the well. Call rule: 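Migration changed when robust z exceeds 2 or falls below -2 and mean nuclei number is at least 3300; otherwise not called changed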. Calls: active = migration changed; inactive = no migration change, or too few cells.
This is an unselected part of about 18,000 reagents tested. About 1,030 of them (5.7%) were called active. 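Inactive calls also include pools with fewer than 3300 nuclei, whose migration was not assessed.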 Raw values are not corrected between plates. A number with no mark means an inactive call. Not all columns of the deposit are shown. Reagent sequences are not shown.

With knock-down of FLT1 (fms related receptor tyrosine kinase 1), the screen gave migration robust z-score -0.36; nuclei per well, duplicate mean 5382.
For DQX1 (DEAQ-box RNA dependent ATPase 1), the entry reads migration robust z-score 0.91; nuclei per well, duplicate mean 6240.
For EEF1G (eukaryotic translation elongation factor 1 gamma), the values are migration robust z-score -0.34; nuclei per well, duplicate mean 6031.
After knock-down of TBP (TATA-box binding protein) the results were migration robust z-score -0.65; nuclei per well, duplicate mean 5358.
With knock-down of GPR42 (G protein-coupled receptor 42), the record shows migration robust z-score -0.16; nuclei per well, duplicate mean 3776.
Knock-down of FAM204A (family with sequence similarity 204 member A) came out at: migration robust z-score -1.66; nuclei per well, duplicate mean 5477.
Silencing of PROSER3 (proline and serine rich 3) came out at: migration robust z-score 0.17; nuclei per well, duplicate mean 5969.
With knock-down of SND1-IT1 (SND1 intronic transcript 1), the record shows migration robust z-score 1.29; nuclei per well, duplicate mean 6653.
DDX5 (DEAD-box helicase 5) scored migration robust z-score -0.39; nuclei per well, duplicate mean 4815.
With knock-down of DERL1 (derlin 1), the record shows migration robust z-score 2.43 (active); nuclei per well, duplicate mean 6732.
With knock-down of LATS2 (large tumor suppressor kinase 2), the screen gave migration robust z-score -0.13; nuclei per well, duplicate mean 6514.
For HTT (huntingtin), the values are migration robust z-score -1.22; nuclei per well, duplicate mean 5086.
Silencing of ZC2HC1C (zinc finger C2HC-type containing 1C) resulted in: migration robust z-score 0.34; nuclei per well, duplicate mean 5966.
Against PRMT2IP (PRMT2 interacting protein), the entry reads migration robust z-score -0.6; nuclei per well, duplicate mean 6070.
Silencing of TNFRSF25 (TNF receptor superfamily member 25) came out at: migration robust z-score 0.86; nuclei per well, duplicate mean 6192.
DTX2 (deltex E3 ubiquitin ligase 2) showed migration robust z-score -0.1; nuclei per well, duplicate mean 5074.
OR51G1 (olfactory receptor family 51 subfamily G member 1) scored migration robust z-score 2.17 (active); nuclei per well, duplicate mean 5527.
Silencing of DYSF (dysferlin) came out at: migration robust z-score 0.5; nuclei per well, duplicate mean 7486.
CXADR (CXADR cell adhesion molecule) scored migration robust z-score 1.03; nuclei per well, duplicate mean 6591.
With knock-down of HDAC2 (histone deacetylase 2), the screen gave migration robust z-score -0.76; nuclei per well, duplicate mean 5067.
MTHFD1 gave migration robust z-score 1.69; nuclei per well, duplicate mean 5972.
After knock-down of EXOSC5 (exosome component 5) the results were migration robust z-score 1.38; nuclei per well, duplicate mean 7422.
Against NTM (neurotrimin), the entry reads migration robust z-score -2.4 (active); nuclei per well, duplicate mean 3826.
Against HTR1B (5-hydroxytryptamine receptor 1B) the deposit lists migration robust z-score -0.88; nuclei per well, duplicate mean 6654.
Knock-down of FBL (fibrillarin rRNA 2'-O-methyltransferase) gave: migration robust z-score -0.12; nuclei per well, duplicate mean 5738.
Silencing of SCGB1D4 (secretoglobin family 1D member 4) came out at: migration robust z-score -0.9; nuclei per well, duplicate mean 4424.
Against OVCH1 (ovochymase 1), the values are migration robust z-score -0.24; nuclei per well, duplicate mean 5975.

An excerpt from above, showing only “migration robust z-score”:
EXOSC5 (exosome component 5): 1.38
NTM (neurotrimin): -2.4 (active)
